In experiment [1] the target is FLAG-tagged Rpb3 (S. cerevisiae) (UniProt P16370). Put plainly: co-IP; Rpb3-FLAG precipitated with anti-Flag agarose from whole cell lysates of uncrosslinked wildtype and spt6-1004 cells at 30 °C and after the shift to 37 °C; IP buffer 20 mM Hepes-KOH pH 7.6, 125 mM potassium acetate, 1% NP-40; 2 h at 4 °C; Western blot.
In experiment [2] the target is Rpb3 with C-terminal BioTAP tag (S. cerevisiae) (UniProt P16370). The experiment in a line: pull-down; BioTAP-XL two-step purification of Rpb3-BioTAP (IgG beads, then streptavidin agarose) from 1% formaldehyde-cross-linked, sonicated cells shifted to 37 °C for 80 min; Western blot at the stages of purification; untagged cells as control.

Amino acid sequences for entries named in this document (tags omitted).
UniProt P16370: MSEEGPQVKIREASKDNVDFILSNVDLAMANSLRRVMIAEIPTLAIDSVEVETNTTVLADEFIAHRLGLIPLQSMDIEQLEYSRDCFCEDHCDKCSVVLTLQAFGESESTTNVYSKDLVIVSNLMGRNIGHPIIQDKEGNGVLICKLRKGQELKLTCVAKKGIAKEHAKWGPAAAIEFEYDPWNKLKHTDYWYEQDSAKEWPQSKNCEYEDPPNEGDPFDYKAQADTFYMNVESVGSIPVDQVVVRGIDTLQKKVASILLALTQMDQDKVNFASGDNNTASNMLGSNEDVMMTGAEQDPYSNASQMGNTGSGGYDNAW

The values that follow come from PMC8511950.

No constants are given. Whether binding was seen depends on the method and setting. Binding seen in cells or lysates may run through a third protein. Some results given as binding are weak or reduced against the parent protein; the word gives no strength.

B1: Iwr1 (protein, UniProt Q07532 1-353)
chain: MSTISTTTAPEFIRVKRRRDEDSVQALLIDEGKRVKKQKFIFKLSKTVSSESYQSEQESSTPLLKLAHEDHRHFVLEQRKKSRRDSDDEKSQQRLAAEGSTVDDDGLPPEINQMVNDYLKLNKGVEKTERKKPSRKYFTGDSAKIASLPSLDYVFDIYHLEKIHDDEVARYNNEKNIGFVKIIEHIDLALDEESDPNEARSDDEDSNDENYYQNDYPEDEDDDRSILFGSEGEDIAALGEEIVIGVNKSRFSSWNDDKIQGSNGYHDVEEEYGDLFNRLGGKSDVLKSINSSNFIDLDGQEGEIEISDNEDDSDEGDDIEYPRNEFFPTDVDDPLAHHRDRIFHQLQKKINRS
B1: the binding result in experiment [1] is recorded as “binds”.

B2: Spn1 (protein, UniProt Q06505 1-410)
chain: MSTADQEQPKVVEATPEDGTASSQKSTINAENENTKQNQSMEPQETSKGTSNDTKDPDNGEKNEEAAIDENSNVEAAERKRKHISTDFSDDDLEKEEHNDQSLQPTVENRASKDRDSSATPSSRQELEEKLDRILKKPKVRRTRRDEDDLEQYLDEKILRLKDEMNIAAQLDIDTLNKRIETGDTSLIAMQKVKLLPKVVSVLSKANLADTILDNNLLQSVRIWLEPLPDGSLPSFEIQKSLFAALNDLPVKTEHLKESGLGRVVIFYTKSKRVEAQLARLAEKLIAEWTRPIIGASDNYRDKRIMQLEFDSEKLRKKSVMDSAKNRKKKSKSGEDPTSRGSSVQTLYEQAAARRNRAAAPAQTTTDYKYAPVSNLSAVPTNARAVGVGSTLNNSEMYKRLTSRLNKKHK
On to B2, for which the binding result in experiment [1] is given as “binds”.

B3: Set2 (enzyme, UniProt P46995 1-733)
chain: MSKNQSVSASEDEKEILNNNAEGHKPQRLFDQEPDLTEEALTKFENLDDCIYANKRIGTFKNNDFMECDCYEEFSDGVNHACDEDSDCINRLTLIECVNDLCSSCGNDCQNQRFQKKQYAPIAIFKTKHKGYGVRAEQDIEANQFIYEYKGEVIEEMEFRDRLIDYDQRHFKHFYFMMLQNGEFIDATIKGSLARFCNHSCSPNAYVNKWVVKDKLRMGIFAQRKILKGEEITFDYNVDRYGAQAQKCYCEEPNCIGFLGGKTQTDAASLLPQNIADALGVTVSMEKKWLKLKKLSGEPIIKNENENINIEFLQSLEVQPIDSPVDVTKIMSVLLQQDNKIIASKLLKRLFTIDDDSLRHQAIKLHGYTCFSKMLKLFITEQPQVDGKGNETEEDDIKFIKGILDFLLELPKTTRNGIESSQIDNVVKTLPAKFPFLKPNCDELLEKWSKFETYKRITKKDINVAASKMIDLRRVRLPPGWEIIHENGRPLYYNAEQKTKLHYPPSGSSKVFSSRSNTQVNSPSSSGIPKTPGALDSKKHKLSDEEYERKKQKRLEYERIALERAKQEELESLKQKLKLENERKSVLEDIIAEANKQKELQKEEAKKLVEAKEAKRLKRKTVSQSQRLEHNWNKFFASFVPNLIKKNPQSKQFDHENIKQCAKDIVKILTTKELKKDSSRAPPDDLTKGKRHKVKEFINSYMDKIILKKKQKKALALSSASTRMSSPPPSTSS
As to B3, the binding result in experiment [1] was “binds”.

B4: Spt5 (protein, UniProt P27692 1-1063)
chain: MSDNSDTNVSMQDHDQQFADPVVVPQSTDTKDENTSDKDTVDSGNVTTTESTERAESTSNIPPLDGEEKEAKSEPQQPEDNAETAATEQVSSSNGPATDDAQATLNTDSSEANEIVKKEEGSDERKRPREEDTKNSDGDTKDEGDNKDEDDDEDDDDDDDDEDDDDEAPTKRRRQERNRFLDIEAEVSDDEDEDEDEEDSELVREGFITHGDDEDDEASAPGARRDDRLHRQLDQDLNKTSEEDAQRLAKELRERYGRSSSKQYRAAAQDGYVPQRFLLPSVDTATIWGVRCRPGKEKELIRKLLKKKFNLDRAMGKKKLKILSIFQRDNYTGRIYIEAPKQSVIEKFCNGVPDIYISQKLLIPVQELPLLLKPNKSDDVALEEGSYVRIKRGIYKGDLAMVDQISENNLEVMLKIVPRLDYGKFDEIDPTTQQRKSRRPTFAHRAPPQLFNPTMALRLDQANLYKRDDRHFTYKNEDYIDGYLYKSFRIQHVETKNIQPTVEELARFGSKEGAVDLTSVSQSIKKAQAAKVTFQPGDRIEVLNGEQRGSKGIVTRTTKDIATIKLNGFTTPLEFPISTLRKIFEPGDHVTVINGEHQGDAGLVLMVEQGQVTFMSTQTSREVTITANNLSKSIDTTATSSEYALHDIVELSAKNVACIIQAGHDIFKVIDETGKVSTITKGSILSKINTARARVSSVDANGNEIKIGDTIVEKVGSRREGQVLYIQTQQIFVVSKKIVENAGVFVVNPSNVEAVASKDNMLSNKMDLSKMNPEIISKMGPPSSKTFQQPIQSRGGREVALGKTVRIRSAGYKGQLGIVKDVNGDKATVELHSKNKHITIDKHKLTYYNREGGEGITYDELVNRRGRVPQARMGPSYVSAPRNMATGGIAAGAAATSSGLSGGMTPGWSSFDGGKTPAVNAHGGSGGGGVSSWGGASTWGGQGNGGASAWGGAGGGASAWGGQGTGATSTWGGASAWGNKSSWGGASTWASGGESNGAMSTWGGTGDRSAYGGASTWGGNNNNKSTRDGGASAWGNQDDGNRSAWNNQGNKSNYGGNSTWGGH
Take B4: the binding entry in experiment [1] and in experiment [2] was “binds” in each case.
